Source: PubChem BioAssay AID540256 (National Center for Advancing Translational Sciences (NCATS), 2011)
Among all 300,000 compounds or so, about 3,700 (1.2%) were called active. The inconclusive results got no clear call from the source; some entries with a clear call stand among them for comparison. Calls come from the whole dose curve; tested in HEK293 cells. Where the call is inconclusive, the potency comes from a doubtful curve fit.

Experiment: qHTS for Inhibitors of binding or entry into cells for Lassa Virus; note: nearly all actives have a fitted effect of over 50% in size
Conditions: Lassa virus pseudotype entry inhibition, cell reporter; activity change, negative = inhibition: at 37.9 µM (top of the series) unless noted
% is set by controls: 0 for no effect and ±100 for the full control effect; potency is the fitted concentration of half-maximal effect.

| Structure (SMILES) | Potency | activity change, negative = inhibition |
| --- | --- | --- |
| CC(C)(C)C1C=C(Sc2ccccc2)C(=O)O1 (centres undefined) | inconclusive: 15.8 µM [inhibitor, single point] | – |
| NC(=O)c1ccc(NC(=O)COC(=O)c2c3c(nc4ccccc24)/C(=C\c2ccc4c(c2)OCO4)CCC3)cc1 | inconclusive: 29.1 µM [inhibitor, single point] | – |
| COc1ccc(C(C)=O)cc1CS(=O)(=O)CC(=O)O | inconclusive: 35.5 µM [activator, single point] | – |
| Cc1cc2nc(-c3cccnc3SCC(=O)NCc3ccco3)[nH]c2cc1C | inconclusive: 0.411 µM [activator, full curve, poor fit] | – |
| O=[N+]([O-])c1nn(-c2ccc3c(c2)OCCO3)n(O)c1=Nc1ccccc1 | active: 7.08 µM | – |
| CCOC(=O)c1c(NC(=O)CN2C(=O)NC(C)(c3ccc(OC(F)F)cc3)C2=O)sc(C)c1C (centres undefined) | inconclusive: 17.8 µM [inhibitor, single point] | – |
| Cc1cc(Cl)ccc1OCC(=O)Nc1ccccc1N1CCOCC1 | active: 8.91 µM | – |
| CCc1ccc(NC(=O)C(=O)NNC(=O)COc2cccc(OC)c2)cc1 | inconclusive: 8.2 µM [activator, partial curve, poor fit] | – |
| COc1ccc(S(=O)(=O)Nc2ccc3oc4c(c3c2)CCCC4)cc1 | inconclusive: 35.5 µM [inhibitor, single point] | – |
| Cc1ccccc1CN1[C@@H](CC(C)C)COc2cc(Br)ccc2S1(=O)=O | inconclusive: 0.0199 µM [activator, full curve, poor fit] | – |
| Cc1cccc(-c2noc(-c3cccnc3NCc3ccc(Cl)cc3)n2)c1 | – | inactive: -2.35% [at 46.1 µM] |
| CCCCNC(=O)CSc1nc2n[nH]c(C)c2c(=N)n1-c1cccc(Cl)c1C | inconclusive: 14.6 µM [inhibitor, partial curve, poor fit] | – |
| CCn1c(SCC(=O)c2ccccc2)nnc1-c1cc2cc(Br)ccc2o1 | inconclusive: 25.1 µM [inhibitor, single point] | – |
| COc1ccccc1N1CCN(C(=O)/C=C/c2cccs2)CC1 | inconclusive: 29.1 µM [activator, partial curve, poor fit] | – |
| O=C(Nc1ccc2c(c1)OCO2)c1nn(-c2ccccc2)c(=O)c2ccccc12 | inconclusive: 29.1 µM [activator, single point] | – |
| CCOC(=O)N=S(=O)(Oc1ccc([N+](=O)[O-])cc1)c1ccc(Cl)cc1 (centres undefined) | inconclusive: 20 µM [inhibitor, partial curve, poor fit] | – |
| CCCN(CCC)c1nc(N)c(C#N)c(CC#N)c1C#N | – | inactive: -3.7% |
| O=C(CSc1ccc([N+](=O)[O-])cn1)Nc1ccccc1N1CCOCC1 | – | inactive: 8.86% |
| CCOC(=O)c1c(NC(=O)COC(=O)Cn2c(C)nc3ccccc32)sc2c1CCCC2 | – | inactive: 5.16% |
| C/C(Nc1ccc(C)cc1)=C(/C#N)C(N)=O | inconclusive: 0.103 µM [activator, full curve, poor fit] | – |
| Cc1nc(C)n(C(C)CNC(=O)c2ccccc2)n1 (centres undefined) | inconclusive: 17.8 µM [activator, partial curve, poor fit] | – |
| O=[N+]([O-])c1cccc(COc2cccc(CN3CCCCC3)c2)c1 | inconclusive: 0.0445 µM [inhibitor, full curve, poor fit] | – |

Some values from the results shown:
COc1ccccc1N1CCN(C(=O)/C=C/c2cccs2)CC1 – Potency: inconclusive: 29.1 µM [activator, partial curve, poor fit]
Cc1cc2nc(-c3cccnc3SCC(=O)NCc3ccco3)[nH]c2cc1C – Potency: inconclusive: 0.411 µM [activator, full curve, poor fit]

Further records:

| Structure (SMILES) | Potency | activity change, negative = inhibition |
| --- | --- | --- |
| COc1ccc(S(=O)(=O)N2CCN(Cc3ccc(Cl)cc3)CC2)cc1 | inconclusive: 14.6 µM [inhibitor, partial curve] | – |
| CCN(CC)c1ccc(NC(=O)Nc2ccccc2)cc1 | inconclusive: 35.5 µM [inhibitor, single point] | – |
| COc1ccccc1C(=O)Nc1ccc2c3c(cccc13)CC2 | inconclusive: 4.61 µM [inhibitor, single point] | – |
| COc1ccc(/C=C2\SC(N3CCc4ccccc4C3)=NC2=O)cc1 | inconclusive: 22.4 µM [inhibitor, single point] | – |
| CN1CCN(c2ccc(Cl)cc2NC(=O)c2cccc(S(=O)(=O)N(C)C)c2)CC1 | – | inactive: 0.211% |
| O=C(O)C(=O)/C(=C\c1ccsc1)c1ccc2ccccc2n1 | inconclusive: 0.891 µM [inhibitor, full curve, poor fit] | – |
| CN(C)CCCN(C(=O)c1ccc(C(=O)c2ccccc2)cc1)c1nc2cc3c(cc2s1)OCCO3 | inconclusive: 17.8 µM [inhibitor, single point] | – |
| O=C(CSc1ncnc2ccccc12)NC1CCS(=O)(=O)C1 (centres undefined) | – | inactive: -2.27% |
| CCc1nc(SCc2ccc(C(=O)OC)o2)n[nH]1 | inconclusive: 31.6 µM [activator, single point] | – |
| COC(=O)c1ccccc1OCCOCCOc1cccc2cccnc12 | – | inactive: 2.19% |
| Cc1nn(-c2ccc(N3CCCCC3)nn2)c(C)c1CCC(=O)Nc1ccc(F)cc1F | inconclusive: 35.5 µM [inhibitor, single point] | – |
| COc1cc([N+](=O)[O-])ccc1NC(=O)CC1SC(=Nc2ccc(F)cc2)N(CCC2=CCCCC2)C1=O (centres undefined) | active: 3.16 µM | – |
| Cc1ccc(CSc2ncnc3c2cnn3-c2ccc(C)cc2)cc1 | – | inactive: 7.19% |
| CCOC(=O)c1c(C)[nH]c(C)c1S(=O)(=O)NCC(=O)Nc1cccc(C#N)c1 | – | inactive: 9.9% [at 46.1 µM] |
| CCOC(=O)C1=C(C)N(c2ccc(C)c(C)c2)C(=O)/C1=C\c1ccco1 | – | inactive: 2.43% |
| COc1ccc(CN(C)Cc2nc(Cc3ccccc3Cl)no2)cc1OC | inconclusive: 35.5 µM [inhibitor, partial curve, poor fit] | – |
| CC(=O)c1c(C)nc(-c2ccccc2)n1O | inconclusive: 6.51 µM [activator, single point] | – |
| CCN(CC)c1ccc(/C=N/NC(=O)CNC(=O)C2COc3ccccc3O2)c(O)c1 (centres undefined) | active: 11.2 µM | – |
| O=C(c1cccc(Cl)c1)N1c2nc(-c3ccco3)nn2C2(CCCCC2)[C@@H]2CCCC[C@@H]21 | – | inactive: 18.2% [at 46.1 µM] |
| CN(C)C(=O)c1cc(C(=O)c2ccc(F)cc2C(F)(F)F)c[nH]1 | – | inactive: -13% [at 46.1 µM] |
| CCOC(=O)c1cccc(NC(=O)Nc2ccc3c(c2)C(=O)OC3)c1 | inconclusive: 1.26 µM [inhibitor, partial curve, poor fit] | – |
| CCOC(=O)C1=C(C)N=c2s/c(=C\c3ccc(C(=O)O)cc3)c(=O)n2C1c1ccc(OC)cc1OC (centres undefined) | inconclusive: 25.1 µM [inhibitor, single point] | – |
